The source of these data is article PMC9714380.

By UniProt entry, the sequences of proteins in these tests, tags left out. Residues count along the entry.
UniProt Q07011, residues 24-255: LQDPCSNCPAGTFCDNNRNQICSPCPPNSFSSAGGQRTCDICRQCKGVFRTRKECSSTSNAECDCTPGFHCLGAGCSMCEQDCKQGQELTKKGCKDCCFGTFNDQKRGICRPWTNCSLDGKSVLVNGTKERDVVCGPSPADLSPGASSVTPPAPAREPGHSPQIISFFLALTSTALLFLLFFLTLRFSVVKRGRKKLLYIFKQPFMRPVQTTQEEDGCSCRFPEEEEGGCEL
UniProt P41273, residues 50-254: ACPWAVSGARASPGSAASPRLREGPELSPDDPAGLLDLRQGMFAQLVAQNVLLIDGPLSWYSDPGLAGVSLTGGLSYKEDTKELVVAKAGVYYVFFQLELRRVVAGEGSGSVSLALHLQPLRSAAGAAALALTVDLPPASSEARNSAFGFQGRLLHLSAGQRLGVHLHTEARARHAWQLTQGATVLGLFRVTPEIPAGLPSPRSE

Results are given in words; binding and its absence hold for the method and conditions named. Some binding calls cover weakened binding; strength is not graded here.

The test has as its target human CD137 on CHOK1-hCD137 cells (human) (UniProt Q07011). Put plainly: flow cytometry on cells; receptor blocking assay: 2 x 10^5 CHOK1-hCD137 cells per well with CD137L-hFc-Biotin and serially diluted anti-CD137 antibody, 4 °C for 1 h, FACS buffer (PBS + 2% FBS); detected with streptavidin-Alexa Fluor 488; only the binder purified. (In flow cytometry, cells or beads pass a laser one at a time.)

As for “CD137L-hFc-Biotin (from UniProt P41273 50-254) (Fc fusion)”, the binding entry is recorded as “binds”.
